# Measurements taken from patent publication US20120108797A1.
# These are yes or no findings as the source states them, for the method shown. Where a sequence is shown, tags or fusion partners need not be part of it.
# T1: human Ly6e (myc-tagged) on HEK293T cells (human) (UniProt Q16553)
# T1 sequence (looked up): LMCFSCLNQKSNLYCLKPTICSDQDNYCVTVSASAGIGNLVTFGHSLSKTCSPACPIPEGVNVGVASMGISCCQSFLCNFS
# Target: T1, human Ly6e (myc-tagged) on HEK293T cells (human)
# Experiment: FACS, HEK293T/Ly6e cells, supernatant 1:2
row,Binder,binding
1,"1.4.2 (antibody, V domains shown) VH: EVQLVESGGGLVQPGGSLRLSCAASGFTFSSYDMHWVRQATGKGLEWVSAIGTAGDTYYPGSVKGRFTISRENAKNSLYLQMNSLRAGDTAVYYCAREGDYSNYFTMVRGVTYGMDVWGQGTTVTVSS VL: DIQLTQSPSSLCASVGDRITITCRASQGISKYLAWFQQKPGKAPKSLIYGASSLQSGVPAKFSGSGSGTDFTLTISSLQPEDFATYYCQQYNSYPLTFGGGTKVEIK",no binding (tested: GeoMean ratio threshold 1.95)
2,"1.61.1 (antibody, V domains shown) VH: EVQLVESGGGLVQPGGSLRLSCAASGFTFSSYDMHWVRQATGKGLEWVSAIGTAGDTYYPGSVKGRFTISRENAKNSLYLQMNSLRAGDTAVYYCAREGDYSNYFTRVRGVTYGMDVWGQGTTVTVSS VL: DIQMTQSPSSLSASVGDRVTITCRASQGISKYLAWFQQKPGKAPKSLIYGASSLQSGVPSKFSGSGSGTDFTLTISSLQPEDFATYYCQQYNSYPLTFGGGTKVEIK",no binding (tested: GeoMean ratio threshold 1.95)
3,"2.6.1 (antibody, IgG4, V domains shown) VH: EVQLVESGGGLIQPGGSLRLSCAASGFTVITNYMNWVRQAPGKGLEWVSIIYTGGSTSYADSVKGRFTVSRDNSKNTLYLHMNSLRVEDTAVYYCAREIAVAGYYGMDVWGQGTTVTVS VL: DIQMTQSPSSLSASVGDRVTITCRASQGIRNDLGWYQQKPGKAPKRLIYAASSLQSGVPSRFSGSGSGTEFTLTISSLQPEDFATYYCLQHNSYPLTFGGGTRVEIK",no binding (tested: GeoMean ratio threshold 1.95)
4,"3.8.3 (antibody, V domains shown) VH: EVQLVESGGGLVQPGGSLRLSCAASGFTFSSYWMSWVRQAPGKGLEWVANIKQHGSEKYYVDSVKGRFTISRDNAKNSLYLQMNSLRAEDTAVYYCAREEAYYYDNSGYYWYFDLWARGTLVTVSS VL: DIQMTQSPSSVSASIGDRVTITCRASQGISSWLAWYQQKPGKTPKLLIYAASSLQSGVPSRFSGSGSGTDFTLTISSLQPEDFATYYCQQADSFPWTFGQGTKVEIK",no binding (tested: GeoMean ratio threshold 1.95)
5,"4.18.1 (antibody, V domains shown) VH: EVQLVESGGGLIQPGGSLRLSCAASGFTVRNNYMNWVRQAPGKGLEWVSVIYTGGSTYYADSVKGRFTISRDNSRNTLYLQMNSLRAEDTAVYYCAREGAVAGFDYWGQGTLVTVSL VL: EIVMTQFPATLSMSPGERATLSCRASQSVSSSLAWYQQTPGQAPRLLIYGASTRSTGFPARFSGIGSGTEFTLTISSLQSEDFAVYYCQQYGNWPLTFGQGTRLEIK",no binding (tested: GeoMean ratio threshold 1.95)
6,"4.19.1 (antibody, V domains shown) VH: EVQLVESGGGLIQPGGSLRLSCAASGFSVSSNYMNWVRQAPGKGLEWVSVIYTGGSTYYADSVKGRFTISRDNSKNTLYLQMNSLRAEDTAVYYCARDTYLYGMDVWGQGTTVTVSS VL: EIVMTQSPATLSVSPGESATLSCRTSQSVSSNLAWYQQKPGQTPRLLIYGASARATGVPARFSGSGSGTEFTLTISSLQSEDFAVYYCQQYYNWPLTFGGGTKVEIK",no binding (tested: GeoMean ratio threshold 1.95)
